Some results were stated once for a whole list of compounds, not compound by compound.
Test system: bimolecular glmS ribozyme
Assay: High-throughput glmS assay, FRET in 384-well plates (Example 2)
Format: biochemical, S. aureus
Conditions: 960-compound pilot screen, Plate 1
Protocol: High-throughput glmS assay. High-throughput fluorescence assay validation and screening was performed in 384-well black polypropylene plates (Corning part number 3677) in a 10 μL solution of 50 mM HEPES (pH 7.5 at 25° C.), 10 mM MgCl2, and 200 mM KCl, with 0.01% SDS where indicated in the text. A Tecan Aquarius multichannel pipettor (Tecan Group, LTD, Switzerland) was used for automated liquid handling. In a typical experiment, a reaction mixture containing buffer and both RNA domains was transferred into the assay plates with the liquid handler, the fluorescence was measured, and the reaction was initiated by the addition of ˜50 nl of either GlcN6P, an analog of GlcN6P, or a library compound suspended at 10 mM in DMSO using the Tecan pin tool (˜50 μM final concentration of compound). Plates were sealed with non-breathable sealing tape and protected from light for the specified incubation time, at which point the plate was briefly centrifuged and the fluorescence measured. All multiplate fluorescence measurements were conducted with a Wallach Envision (Perkin Elmer, Wellesly, Mass.) plate reader with a 480 nm excitation filter (30 nm bandwidth) and a 535 nm emission filter (25 nm bandwidth).
To enable FRET detection of cleavage, the substrate was synthesized with a 5-(and 6-)-carboxyfluorescein (5/6-FAM) donor at the 3′ end and a Cy3™ acceptor at the 5′ end. […]

SMILES: N[C@H]1C(O)O[C@H](CO)[C@@H](O)[C@@H]1O (stereo partly shown) [glucosamine]
- fluorescence response above the no-ligand control: greater than 10 standard deviations

Source: US8313901B2, “Methods and compositions related to the modulation of riboswitches” (Yale University, priority 2005, dated 2012)
